According to article PMC7048182:
These are yes or no findings as the source states them, for the method shown. Binding calls can cover weak binding; strength is not graded here.

Sequences of proteins named here, by UniProt entry; tags and fusion partners are left off. A change or cut given only in a name is not applied to a line headed by its entry.
UniProt D2DW56: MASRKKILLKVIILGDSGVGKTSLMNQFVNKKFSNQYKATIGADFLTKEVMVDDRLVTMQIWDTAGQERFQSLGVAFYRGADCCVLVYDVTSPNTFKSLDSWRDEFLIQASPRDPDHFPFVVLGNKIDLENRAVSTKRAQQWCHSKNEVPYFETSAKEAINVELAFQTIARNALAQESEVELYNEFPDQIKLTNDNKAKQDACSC
UniProt Q00P14: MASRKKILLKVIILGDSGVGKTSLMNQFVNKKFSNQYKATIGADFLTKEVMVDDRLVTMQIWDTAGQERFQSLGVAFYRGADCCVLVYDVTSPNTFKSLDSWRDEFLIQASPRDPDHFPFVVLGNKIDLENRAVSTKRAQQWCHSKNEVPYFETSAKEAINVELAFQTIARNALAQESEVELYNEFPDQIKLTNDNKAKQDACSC
UniProt Q9ICB7: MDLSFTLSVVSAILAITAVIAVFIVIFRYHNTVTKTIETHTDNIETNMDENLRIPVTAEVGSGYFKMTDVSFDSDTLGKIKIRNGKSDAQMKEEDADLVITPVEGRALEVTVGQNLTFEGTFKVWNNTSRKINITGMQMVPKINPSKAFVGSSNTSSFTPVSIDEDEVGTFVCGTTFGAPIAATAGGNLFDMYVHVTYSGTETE

Experiments:
[1] = biological target: MBP-tagged LvRab7 (Litopenaeus vannamei Rab7) (Litopenaeus vannamei) (UniProt D2DW56); test: pull-down; MBP pull-down: 100 μl MBP-tagged rPmRab7, rLvRab7 or rLvpIgR (1 μg/μl) with 100 μl VP28 or VP24, 4°C, 1 h; MBP-bind resin 2 h at 4°C; washed with PBS; Coomassie staining and western blot (GST tag antibody); both purified
[2] = biological target: MBP-tagged PmRab7 (Penaeus monodon Rab7) (Penaeus monodon) (UniProt Q00P14); test: as above
[3] = biological target: GST-tagged VP28 of WSSV (white spot syndrome virus (WSSV)) (UniProt Q9ICB7); test: pull-down; competitive GST pull-down with three recombinantly expressed proteins: VP28, LvRab7 and different amounts of BigPEN-FL; Coomassie staining and western blot; both purified
[4] = biological target: GST-tagged VP28 of WSSV (white spot syndrome virus (WSSV)) (UniProt Q9ICB7); test: pull-down; GST pull-down: 100 μl MBP-tagged rPmRab7, rLvRab7 or rLvpIgR (1 μg/μl) with 100 μl GST-tagged VP28 or VP24 (1 μg/μl), 4°C, 1 h; GST-binding resin 2 h at 4°C; washed with PBS; Coomassie staining and western blot (MBP tag antibody); both purified

Row | Substance | binding [1] | binding [2] | binding [3] | binding [4]
1 | GST-tagged VP28 of WSSV (from UniProt Q9ICB7) | binds | binds | – | –
2 | MBP-tagged LvRab7 (Litopenaeus vannamei Rab7) (from UniProt D2DW56) | – | – | binds | binds
3 | MBP-tagged PmRab7 (Penaeus monodon Rab7) (from UniProt Q00P14 1-205) | – | – | – | binds
